Experimental data from the supplement of paper PMC10849652.
Some of the results follow.

The chains behind the UniProt entries cited, without tags or fusion partners. Where a name states a change or a piece, a line headed by the entry shows the natural chain unless it says otherwise.
UniProt Q9NTN9: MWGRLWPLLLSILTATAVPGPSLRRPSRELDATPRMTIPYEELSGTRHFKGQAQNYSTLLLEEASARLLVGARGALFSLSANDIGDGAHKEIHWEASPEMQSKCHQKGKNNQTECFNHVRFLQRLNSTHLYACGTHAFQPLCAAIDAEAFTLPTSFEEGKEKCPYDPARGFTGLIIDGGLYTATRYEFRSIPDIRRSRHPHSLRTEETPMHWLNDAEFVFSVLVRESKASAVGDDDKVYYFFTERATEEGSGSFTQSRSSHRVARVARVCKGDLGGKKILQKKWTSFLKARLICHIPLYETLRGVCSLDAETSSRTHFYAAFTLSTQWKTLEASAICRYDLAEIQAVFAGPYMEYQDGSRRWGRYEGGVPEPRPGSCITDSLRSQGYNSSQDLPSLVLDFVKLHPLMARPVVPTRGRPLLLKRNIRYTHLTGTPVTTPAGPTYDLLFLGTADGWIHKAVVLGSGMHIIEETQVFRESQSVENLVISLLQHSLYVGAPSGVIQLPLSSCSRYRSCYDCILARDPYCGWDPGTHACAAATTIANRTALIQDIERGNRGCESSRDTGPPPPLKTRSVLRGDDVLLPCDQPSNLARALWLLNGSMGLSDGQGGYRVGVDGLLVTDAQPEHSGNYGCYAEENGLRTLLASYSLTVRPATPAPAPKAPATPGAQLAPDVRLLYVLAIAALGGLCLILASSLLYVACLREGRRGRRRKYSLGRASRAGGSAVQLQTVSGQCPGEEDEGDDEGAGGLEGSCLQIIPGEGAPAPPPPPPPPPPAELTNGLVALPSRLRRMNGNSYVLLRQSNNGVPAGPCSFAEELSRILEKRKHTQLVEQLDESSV
UniProt Q9H4L4: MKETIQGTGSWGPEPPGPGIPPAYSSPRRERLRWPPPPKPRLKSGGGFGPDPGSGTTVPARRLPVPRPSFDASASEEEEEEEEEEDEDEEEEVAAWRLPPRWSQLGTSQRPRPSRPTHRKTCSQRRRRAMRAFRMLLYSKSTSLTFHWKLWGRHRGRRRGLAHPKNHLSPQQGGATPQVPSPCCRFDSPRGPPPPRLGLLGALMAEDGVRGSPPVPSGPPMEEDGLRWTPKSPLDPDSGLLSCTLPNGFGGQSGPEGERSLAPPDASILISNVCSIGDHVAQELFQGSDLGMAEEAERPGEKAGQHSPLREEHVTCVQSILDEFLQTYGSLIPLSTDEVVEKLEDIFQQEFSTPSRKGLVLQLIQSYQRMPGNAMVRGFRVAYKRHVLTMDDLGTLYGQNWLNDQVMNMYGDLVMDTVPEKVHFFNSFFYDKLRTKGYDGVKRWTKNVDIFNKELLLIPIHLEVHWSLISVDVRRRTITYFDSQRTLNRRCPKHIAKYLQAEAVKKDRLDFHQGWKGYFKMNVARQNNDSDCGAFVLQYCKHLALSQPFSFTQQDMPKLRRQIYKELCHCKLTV
UniProt Q9HAJ7: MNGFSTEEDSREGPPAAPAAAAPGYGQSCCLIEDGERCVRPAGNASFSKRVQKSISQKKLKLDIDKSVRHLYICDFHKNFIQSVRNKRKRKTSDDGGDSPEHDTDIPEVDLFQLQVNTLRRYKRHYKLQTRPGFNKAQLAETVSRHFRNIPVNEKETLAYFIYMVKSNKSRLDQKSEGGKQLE
UniProt Q96LT4: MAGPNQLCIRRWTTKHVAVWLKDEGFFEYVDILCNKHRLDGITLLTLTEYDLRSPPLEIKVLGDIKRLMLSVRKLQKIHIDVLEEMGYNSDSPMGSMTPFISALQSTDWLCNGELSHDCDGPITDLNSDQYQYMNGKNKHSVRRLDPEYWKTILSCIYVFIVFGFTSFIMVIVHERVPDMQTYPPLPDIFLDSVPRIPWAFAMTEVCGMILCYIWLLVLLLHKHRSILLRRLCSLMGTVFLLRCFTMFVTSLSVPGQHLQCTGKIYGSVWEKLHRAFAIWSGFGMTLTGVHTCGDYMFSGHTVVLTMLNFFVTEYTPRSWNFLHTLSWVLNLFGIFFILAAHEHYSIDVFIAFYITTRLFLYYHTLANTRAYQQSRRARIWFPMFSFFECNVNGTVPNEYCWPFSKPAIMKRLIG
UniProt Q9UPU9: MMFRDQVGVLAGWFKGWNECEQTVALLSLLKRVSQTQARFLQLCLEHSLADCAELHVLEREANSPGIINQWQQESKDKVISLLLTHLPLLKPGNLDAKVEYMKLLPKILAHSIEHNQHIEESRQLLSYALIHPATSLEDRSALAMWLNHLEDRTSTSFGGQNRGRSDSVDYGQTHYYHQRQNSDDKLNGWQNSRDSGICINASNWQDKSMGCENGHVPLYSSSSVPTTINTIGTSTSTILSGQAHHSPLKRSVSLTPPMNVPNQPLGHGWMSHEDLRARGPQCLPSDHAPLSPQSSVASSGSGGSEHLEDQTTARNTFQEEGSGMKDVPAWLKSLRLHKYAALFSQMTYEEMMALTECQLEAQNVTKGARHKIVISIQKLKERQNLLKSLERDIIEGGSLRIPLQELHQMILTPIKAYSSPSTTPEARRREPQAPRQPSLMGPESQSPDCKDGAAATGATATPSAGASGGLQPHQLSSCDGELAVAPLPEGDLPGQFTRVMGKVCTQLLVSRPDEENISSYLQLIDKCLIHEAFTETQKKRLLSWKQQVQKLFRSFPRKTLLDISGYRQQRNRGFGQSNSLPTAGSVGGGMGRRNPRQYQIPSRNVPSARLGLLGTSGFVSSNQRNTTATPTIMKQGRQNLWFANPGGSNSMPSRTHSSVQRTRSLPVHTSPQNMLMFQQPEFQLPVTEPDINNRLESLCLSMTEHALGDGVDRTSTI
UniProt P60896: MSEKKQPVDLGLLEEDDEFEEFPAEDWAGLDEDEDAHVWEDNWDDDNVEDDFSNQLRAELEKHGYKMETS
UniProt O75056, whole entry, looked up: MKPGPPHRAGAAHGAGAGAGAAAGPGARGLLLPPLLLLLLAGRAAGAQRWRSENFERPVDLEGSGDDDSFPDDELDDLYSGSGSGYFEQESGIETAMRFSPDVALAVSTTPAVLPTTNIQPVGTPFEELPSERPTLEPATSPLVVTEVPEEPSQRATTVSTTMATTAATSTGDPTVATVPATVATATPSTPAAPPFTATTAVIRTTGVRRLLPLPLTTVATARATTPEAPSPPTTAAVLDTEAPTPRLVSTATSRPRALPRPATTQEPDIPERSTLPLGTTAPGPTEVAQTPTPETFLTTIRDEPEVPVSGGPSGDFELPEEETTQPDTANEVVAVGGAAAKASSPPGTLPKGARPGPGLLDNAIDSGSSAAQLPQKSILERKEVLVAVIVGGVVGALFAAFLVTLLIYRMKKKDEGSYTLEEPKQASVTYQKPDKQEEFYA
UniProt Q6UWP8: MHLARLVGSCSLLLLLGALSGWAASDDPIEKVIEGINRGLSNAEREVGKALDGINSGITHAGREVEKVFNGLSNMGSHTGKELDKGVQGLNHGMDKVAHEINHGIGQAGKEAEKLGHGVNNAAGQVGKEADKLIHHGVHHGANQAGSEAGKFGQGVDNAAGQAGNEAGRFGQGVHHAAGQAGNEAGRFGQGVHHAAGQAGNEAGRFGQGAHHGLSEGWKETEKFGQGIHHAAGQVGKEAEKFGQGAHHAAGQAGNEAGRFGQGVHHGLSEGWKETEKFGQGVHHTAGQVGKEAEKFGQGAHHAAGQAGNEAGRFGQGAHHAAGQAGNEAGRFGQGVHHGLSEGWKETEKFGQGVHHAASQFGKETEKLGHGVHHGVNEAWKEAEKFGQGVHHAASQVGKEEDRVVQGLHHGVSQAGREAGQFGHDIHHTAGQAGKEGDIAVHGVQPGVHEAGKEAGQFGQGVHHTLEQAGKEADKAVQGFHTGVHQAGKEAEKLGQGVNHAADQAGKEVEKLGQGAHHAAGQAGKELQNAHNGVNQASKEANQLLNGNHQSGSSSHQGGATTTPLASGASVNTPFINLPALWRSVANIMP
UniProt Q9C0D9, whole entry, looked up: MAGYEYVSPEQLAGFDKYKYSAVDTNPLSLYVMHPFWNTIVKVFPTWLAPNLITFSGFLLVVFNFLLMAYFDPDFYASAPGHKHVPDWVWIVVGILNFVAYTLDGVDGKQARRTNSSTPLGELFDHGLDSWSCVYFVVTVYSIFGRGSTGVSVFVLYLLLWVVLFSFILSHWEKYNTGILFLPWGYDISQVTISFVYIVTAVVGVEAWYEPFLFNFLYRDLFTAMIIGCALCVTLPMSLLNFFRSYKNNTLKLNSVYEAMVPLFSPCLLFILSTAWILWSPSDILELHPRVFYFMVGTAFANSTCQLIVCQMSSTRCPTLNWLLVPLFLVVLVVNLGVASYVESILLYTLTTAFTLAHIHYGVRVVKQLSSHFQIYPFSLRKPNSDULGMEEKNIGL
UniProt Q9NRG7: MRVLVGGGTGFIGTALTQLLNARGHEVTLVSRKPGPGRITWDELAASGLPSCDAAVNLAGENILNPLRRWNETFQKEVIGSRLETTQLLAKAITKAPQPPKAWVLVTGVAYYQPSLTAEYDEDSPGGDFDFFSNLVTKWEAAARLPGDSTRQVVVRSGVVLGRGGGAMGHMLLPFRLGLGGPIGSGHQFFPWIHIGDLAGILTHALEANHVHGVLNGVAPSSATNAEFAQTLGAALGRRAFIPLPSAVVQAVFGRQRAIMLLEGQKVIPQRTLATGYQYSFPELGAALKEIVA
UniProt O95968: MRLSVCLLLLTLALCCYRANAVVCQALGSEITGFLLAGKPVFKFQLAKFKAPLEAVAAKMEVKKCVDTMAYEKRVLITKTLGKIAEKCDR
UniProt Q6SZW1: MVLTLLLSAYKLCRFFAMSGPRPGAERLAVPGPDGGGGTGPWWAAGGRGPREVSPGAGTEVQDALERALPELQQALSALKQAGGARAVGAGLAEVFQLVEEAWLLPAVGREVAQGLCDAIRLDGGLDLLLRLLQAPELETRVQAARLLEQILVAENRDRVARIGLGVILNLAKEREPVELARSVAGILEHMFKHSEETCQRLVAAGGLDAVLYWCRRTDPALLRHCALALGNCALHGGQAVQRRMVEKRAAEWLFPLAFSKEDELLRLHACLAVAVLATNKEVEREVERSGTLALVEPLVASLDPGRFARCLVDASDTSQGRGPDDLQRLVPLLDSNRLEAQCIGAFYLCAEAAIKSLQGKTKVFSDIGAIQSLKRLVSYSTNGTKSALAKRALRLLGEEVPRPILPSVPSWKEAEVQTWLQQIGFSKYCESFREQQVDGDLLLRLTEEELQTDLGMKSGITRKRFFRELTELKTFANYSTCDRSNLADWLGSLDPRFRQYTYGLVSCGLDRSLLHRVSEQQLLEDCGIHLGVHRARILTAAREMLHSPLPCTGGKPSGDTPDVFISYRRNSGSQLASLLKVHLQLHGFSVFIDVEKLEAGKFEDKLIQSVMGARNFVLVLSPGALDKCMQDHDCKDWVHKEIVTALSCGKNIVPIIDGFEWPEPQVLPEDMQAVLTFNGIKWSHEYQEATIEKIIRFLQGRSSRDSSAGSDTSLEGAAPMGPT
UniProt Q9NZV5, whole entry, looked up: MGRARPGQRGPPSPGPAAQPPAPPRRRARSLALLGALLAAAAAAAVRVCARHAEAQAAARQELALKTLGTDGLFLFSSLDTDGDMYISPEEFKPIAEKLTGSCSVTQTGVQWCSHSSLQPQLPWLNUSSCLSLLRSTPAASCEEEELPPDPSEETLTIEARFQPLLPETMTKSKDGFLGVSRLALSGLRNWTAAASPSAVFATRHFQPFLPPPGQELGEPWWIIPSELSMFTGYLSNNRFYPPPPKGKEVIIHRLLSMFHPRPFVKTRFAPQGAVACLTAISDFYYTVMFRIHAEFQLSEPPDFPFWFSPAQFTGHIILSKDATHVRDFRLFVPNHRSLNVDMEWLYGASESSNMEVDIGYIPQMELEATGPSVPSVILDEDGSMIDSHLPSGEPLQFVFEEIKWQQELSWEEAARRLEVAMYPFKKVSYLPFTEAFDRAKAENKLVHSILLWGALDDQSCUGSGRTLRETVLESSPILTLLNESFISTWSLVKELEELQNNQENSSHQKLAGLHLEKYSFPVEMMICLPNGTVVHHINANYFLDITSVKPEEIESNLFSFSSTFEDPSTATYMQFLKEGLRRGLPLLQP
UniProt Q5VUM1: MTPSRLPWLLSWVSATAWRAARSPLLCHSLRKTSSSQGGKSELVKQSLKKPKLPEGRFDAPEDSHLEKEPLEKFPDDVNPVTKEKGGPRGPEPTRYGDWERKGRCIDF
UniProt Q9UIL1: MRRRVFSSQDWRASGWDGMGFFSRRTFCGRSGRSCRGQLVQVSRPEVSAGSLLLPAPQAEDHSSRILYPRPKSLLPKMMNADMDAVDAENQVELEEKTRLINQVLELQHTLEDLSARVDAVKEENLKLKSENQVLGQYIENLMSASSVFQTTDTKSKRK

compound: NC1(c2ccc(-c3nc4ccn5c(=O)[nH]nc5c4cc3-c3ccccc3)cc2)CCC1; assay: log2 fold change, soluble protein after heating vs DMSO (PISA); higher = thermal stabilisation; K562 lysate, 10 uM; active = over 0.2 and 3.5 SD of the protein, either way, in both replicates (recomputed)
Summary of the method: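 K562 pellets were dounce-homogenised in PBS pH 7.4 containing 1 mM MgCl2, and the crude extract, at 1 mg/mL protein, was exposed to 10 μM compound for 30 min. Aliquots were heated for 3 min across 48°C-58°C, pooled, brought to 0.5% NP-40 at 4°C and spun at 21,000xg for 90 min, with the supernatant taken as soluble protein. TMTpro 16plex LC-MS/MS with equalised channel sums quantified that protein. Values are log-two fold changes in thermal stability relative to solvent controls, taken from duplicates.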

log2 fold change, inactive:
SEMA4G isoform 2 (UniProt Q9NTN9) 0.077
SENP3 (UniProt Q9H4L4) -0.075
SAP30L (UniProt Q9HAJ7) 0.055
SAMD8 (UniProt Q96LT4) -0.117
SAMD4A (UniProt Q9UPU9) 0.012
SAP130 isoform 3 (UniProt Q9H0E3) 0.03
SEM1 (UniProt P60896) -0.058
SDC3 (UniProt O75056) -0.075
SBSN (UniProt Q6UWP8) 0.371
SELENOI (UniProt Q9C0D9) 0.115
SDR39U1 (UniProt Q9NRG7) -0.175
SDCCAG8 (UniProt S4R323) 0.071
SCGB1D1 (UniProt O95968) -0.035
SARM1 (UniProt Q6SZW1) 0.086
SELENON (UniProt Q9NZV5) -0.033
SAE1 (UniProt M0R286) -0.044
SDHAF4 (UniProt Q5VUM1) -0.051
SCOC (UniProt Q9UIL1) -0.025

Quoted at random: 2 records from the list
log2 fold change, inactive:
SDHAF4 (UniProt Q5VUM1) -0.051
SAP130 isoform 3 (UniProt Q9H0E3) 0.03
